Counter-ions that a name gives are not always drawn. Like-named read-outs stand apart in the source and are kept apart here. Among all 3,300 compounds or so, about 60 (2%) showed an effect of 50% or more. The list shows a part of the results.
Tested on: HCoV-OC43
Design: species or system RD; HTS, protection from HCoV-OC43 induced cell death, luminescent cell viability (CellCounting-Lite 2.0), inhibition rate
Details: 24 h post infection, 1 h compound pre-incubation, 10 µM, inhibitor

SMILES	OC43 Inhibition rate [%]	OC43 Inhibition rate (OC43 Inhibition rate, 24 h) [%]
C[C@@H]1O[C@@H]1P(=O)(O)O [Fosfomycin (sodium)]	-3	
CC(=O)O[C@H]1[C@H](O[C@H]2CC[C@]34C[C@]35CC[C@]3(C)[C@@H]([C@@]6(C)CC[C@@H](C(C)(C)O)O6)[C@@H](O)C[C@@]3(C)[C@@H]5C[C@H](O[C@@H]3O[C@H](CO)[C@@H](O)[C@H](O)[C@H]3O)[C@H]4C2(C)C)OC[C@@H](O)[C@@H]1O [Astragaloside II]	0.1	
CC(=O)NCCCCN [N-Acetylputrescine hydrochloride]	-0.2	
COc1cc2c(cc1O)[C@@H](Cc1ccc(O)c(Oc3ccc(C[C@@H]4c5cc(OC)c(OC)cc5CCN4C)cc3)c1)N(C)CC2 [Daurisoline]	12.6	
NC(=O)c1[nH]cnc1N [5-Amino-3H-imidazole-4-Carboxamide]	0.4	
CC[C@]12CCCN3CCc4c(n(c5ccccc45)C(=O)C1)[C@@H]32 [Vinburnine]	-0.7	
C[Se]CC[C@H](N)C(=O)O [L-SelenoMethionine]		1.3
CCCC(=O)C(=O)O [2-Oxovaleric acid]	-0.9	
O=c1c(O)c(-c2ccc(O)c(O)c2)oc2cc(O)cc(O)c12 [Quercetin]		-0.1
OCc1ccc(O[C@@H]2O[C@H](CO)[C@@H](O)[C@H](O)[C@H]2O)cc1 [Gastrodin]	-0.1	
O=C(O)CNC(=O)c1cccc(O)c1 [3-Hydroxyhippuric acid]	0	
COc1cc2c(c(OC)c1OC)-c1c(cc3c(c1OC)OCO3)C[C@H](C)[C@H](C)C2 [Gomisin N]		15.7
Cc1ncc(COP(=O)(O)O)c(C=O)c1O [Pyridoxal 5'-phosphate (monohydrate)]		-1.8
C=C(C)[C@@H]1CC[C@]2(C=O)CC[C@]3(C)[C@H](CC[C@@H]4[C@@]5(C)CC[C@H](O)C(C)(C)[C@@H]5CC[C@]43C)[C@@H]12 [Betulinaldehyde]	-0.8	
C[S+]([O-])CC[C@H](N)C(=O)O (stereo partly drawn) [L-Methionine sulfoxide]		-0.9
COC(=O)Nc1ccc(C)c(NC(=O)OC)c1 [Obtucarbamate A]	0.7	
CCc1cc(C(N)=S)ccn1 [Ethionamide]	-1.1	
Cn1cnc2c(ncn2[C@@H]2O[C@H](CO)[C@@H](O)[C@H]2O)c1=N [1-Methyladenosine]	-0.1	
C=C1CCC2(C(C)C)CC12 (stereo not shown) [Sabinene]	-0.5	
NC(=O)c1ncn([C@@H]2O[C@H](CO)[C@@H](O)[C@H]2O)c1O [Mizoribine]	3.1	
Cc1ccc(C(C)C)cc2c(C)ccc1-2 [Guaiazulene]	0.2	
O=C(O)c1cc(O)c(O)c(O)c1 [Gallic acid (hydrate)]		0

SMILES	OC43 Inhibition rate [%]	OC43 Inhibition rate (OC43 Inhibition rate, 24 h) [%]
CC[C@H]1[C@@H]2C[C@H]3[C@@H]4N(C)c5ccccc5[C@]45C[C@@H]([C@H]2[C@H]5O)N3[C@@H]1O [Ajmaline]	0.3	
COc1ccc2c(c1)[nH]c1c(C)nccc12 [Harmine]		3.1
CCOC(=O)NCCCC(=O)NCCc1ccccc1 [Santacruzamate A]	-0.6	
C=C1C(=O)O[C@H]2[C@H]1CCC(C)=C1CC[C@@](C)(O)[C@@H]12 [Micheliolide]	-2.5	
CCCCCCCC/C=C\CCCCCCCC(=O)OCC(COC(=O)CCCCCCC/C=C\CCCCCCCC)OC(=O)CCCCCCCCCCCCCCC [1,3-Dioleoyl-2-palmitoylglycerol]	-0.3	
C[C@@H](O)[C@H](N)C(=O)O [L-Threonine]	7.5	
CSCC[C@H](N)C(=O)O [L-Methionine]	0.1	
CC(C)=CC(=O)C[C@H](C)c1ccc(C)cc1 [ar-Turmerone]	-0.1	
CCc1c2c(nc3ccc(OC(=O)N4CCC(N5CCCCC5)CC4)cc13)-c1cc3c(c(=O)n1C2)COC(=O)[C@]3(O)CC [Irinotecan (hydrochloride)]	-0.6	
C[C@H](O)[C@H]1CC[C@H]2[C@@H]3CC[C@@H]4C[C@H](O)CC[C@]4(C)[C@H]3CC[C@]12C [Pregnanediol]	4.1	
OC[C@H]1O[C@@H](OCCc2ccc(O)cc2)[C@H](O)[C@@H](O)[C@@H]1O [Salidroside]	0.8	
C[C@]12CC[C@@H](O)C[C@H]1CC[C@@H]1[C@@H]2C(=O)C[C@@]2(C)[C@H]1CC[C@]2(O)C(=O)CO [Tetrahydrocortisone]	0.6	
C=C(C(=O)O)[C@@H]1CC[C@@H](C)[C@@H]2CCC(C)=C[C@@H]21 [Artemisic acid]	4.6	
CNCCC=C1c2ccccc2CCc2ccccc21 [Nortriptyline]	10.2	
C[C@H](CC[C@@]1(O)O[C@H]2C[C@H]3[C@@H]4CC[C@@H]5C[C@@H](O[C@@H]6O[C@H](CO)[C@@H](O)[C@H](O)[C@H]6O[C@@H]6O[C@H](CO)[C@@H](O)[C@H](O)[C@H]6O)CC[C@]5(C)[C@H]4CC[C@]3(C)[C@H]2[C@@H]1C)CO[C@@H]1O[C@H](CO)[C@@H](O)[C@H](O)[C@H]1O [Officinalisinin I]	0.4	
CN1C[C@@H]2C[C@H](C1)c1cccc(=O)n1C2 [N-Methylcytisine]	-2.8	
Nc1ccccc1C(=O)C[C@H](N)C(=O)O [2-Amino-4-(2-aminophenyl)-4-oxobutanoic acid]		-0.5
C[C@H]1C(=O)O[C@@H]2CCN3CC=C(COC(=O)[C@](C)(O)[C@]1(C)O)[C@H]23 [Monocrotaline]	0.4	
COc1cc2c(cc1OC)-c1c(OC)c(OC)cc3c1[C@H](C2)N(C)CC3 [Glaucine]	10.9	
CCCCC/C=C\C/C=C\CCCCCCCC(=O)NCc1ccccc1 [N-Benzyllinoleamide]	40	
CCCCCC/C=C\CCCC(=O)O [cis-5-Dodecenoic acid]	-0.1	

One compound at a time (already shown):
C[C@@H](O)[C@H](N)C(=O)O [L-Threonine] is entered as OC43 Inhibition rate [%]: 7.5
CSCC[C@H](N)C(=O)O [L-Methionine] is entered as OC43 Inhibition rate [%]: 0.1

Reference: publication PMC12431657, “Discovery and mechanistic insights of dibenzoylmethane as a broad spectrum inhibitor of coronavirus” (PLOS Pathogens, 2025)
